For assay [1], the target named is human ILT4 (hILT4) expressed on cells (human) (UniProt Q8N423). The experiment in a line: flow cytometry, 293T transfectants, antibody 20 µg/ml; stacked histograms, x axis without numbers, control: parental cells. A general note: In flow cytometry, cells or beads pass a laser one at a time.
Assay [2] shares this target. The experiment in a line: flow cytometry on 293T transfectants, antibody at 20 ug/ml.
Assay [3] shares this target. As to the kind of experiment: FACS or FMAT, hybridoma supernatant on hILT4-transfected cells against control CHO cells.

The chains behind the UniProt entries cited, without tags or fusion partners. Where a name states a change or a piece, a line headed by the entry shows the natural chain unless it says otherwise.
UniProt Q8N423: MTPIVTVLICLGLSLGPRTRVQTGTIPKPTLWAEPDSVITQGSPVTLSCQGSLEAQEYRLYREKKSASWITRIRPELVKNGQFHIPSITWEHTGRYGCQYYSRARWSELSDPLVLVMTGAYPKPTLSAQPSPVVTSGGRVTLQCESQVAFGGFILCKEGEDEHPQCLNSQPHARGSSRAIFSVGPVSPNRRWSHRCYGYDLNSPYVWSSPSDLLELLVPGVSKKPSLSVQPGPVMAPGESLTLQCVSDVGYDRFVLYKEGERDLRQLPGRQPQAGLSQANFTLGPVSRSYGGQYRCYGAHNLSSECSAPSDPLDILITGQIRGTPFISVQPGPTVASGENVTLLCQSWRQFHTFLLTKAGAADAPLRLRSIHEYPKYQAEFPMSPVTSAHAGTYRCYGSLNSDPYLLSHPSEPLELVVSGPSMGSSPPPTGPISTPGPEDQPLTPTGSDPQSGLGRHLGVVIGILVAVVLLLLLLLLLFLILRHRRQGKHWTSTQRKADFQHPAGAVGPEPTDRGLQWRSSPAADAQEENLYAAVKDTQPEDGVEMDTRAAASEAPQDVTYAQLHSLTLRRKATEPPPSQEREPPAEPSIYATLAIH

No constants are given. Whether binding was seen depends on the method and setting. Some entries that bind do so weakly or less than the wild type.

B1: 10F10.IgG1.3 (antibody, V domains shown)
VH: QVQLVESGGGVVQPGRSLRLSCAASGFTFSSYAMHWVRQAPGKGLEWVAIISYDEYNKYYADSVKGRFTISRDNSKNTLYLQMNSLRAEDTAVYYCAREWVGIRYWGQGTLVTVSS
VL: AIQLTQSPSSLSASVGDRVTITCRASQGISSALAWFQQKPGKAPKLLIYDASSLESGVPSRFTGSGSGTDFTLTISSLQPEDFATYYCQQFNSYPITFGQGTRLEIKR
Turning to B1, the binding result in assay [1] and in assay [2] was “binds” each time.

B2: 24E5.A7 (antibody, V domains shown)
VH: EVQLLESGGGLVQPGGSLRLSCAASGFTFSSYVMSWVRQAPGKGLEWVSGISGSGGSTYYADSVKGRFTISRDNSKNTLYLQMNSLRAEDTAVYYCAKDQDIIAAYYFVYWGQGTLVTVSS
VL: DIQMTQSPSSLSASVGDRVTITCRASQGISSWLAWYQQKPEKAPKSLIYAASSLQSGVPSRFSGSGSGTDFTLTISSLQPEDFATYYCQQYNSYPLTFGGGTKVEIK
Take B2: in assay [3], the binding result was “binds”.

B3: 9C8.A6 (antibody, V domains shown)
VH: QVQLVQSGAEVKKPGASVKVSCKASGYTFTSSDINWVRQATGQGLEWMGWMNPNSGHTGYAQKFQDRVTLTRDTSISTAYMELSSLRSEDSAVYYCARGGNSIDWGFSYYGLDVWGQGTTVTVSS
VL: AIQLTQSPSSLSASVGDRVTITCRASQGISSALAWYQQKPGKAPKLLIYDASSLESGVPSRFSGSGSGTDFTLTISSLQPEDFATYYCQQFNSYPFTFGPGTKVDIK
As for B3, the binding result in assay [3] is “binds”.

These data come from patent US20200079848A1.
